PubChem BioAssay AID1224828 | NIAID | 2016
The whole screen tested about 17,000 reagents; shown is a part drawn at random. 762 of them (4.5%) count as active. 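Active calls include both raised and lowered p65 entry, mostly lowered; wells with fewer than 50 cells lack a z-score.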 The raw values are shown without normalisation.

Aim: 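Regulators linking TLR4 signalling to p65 nuclear translocation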 (primary screen)
System: mouse RAW264.7 G9 macrophage reporter cells (GFP-p65, Tnf promoter-mCherry)
Reagents: siRNA pool against mouse genes, 100 nM
Duration: 2 days siRNA transfection, then 40 min LPS before fixation
Conditions: LPS (Salmonella minnesota R595) at 10 ng/ml
Read-out: 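Imaged p65 nuclear translocation ratio, normalised to the plate median, converted to robust z-scores and averaged across two replicates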
Direction: p65 translocation robust z-score: higher = more nuclear NF-kappaB p65 after LPS than the plate median; nuclear/cytoplasmic p65 ratio: higher = more nuclear NF-kappaB p65
Hit rule: 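Called active when z exceeds 3.3 or falls under -1.56 (median of Tlr4 controls), giving activity score of at least 50; no calls for control wells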
Meaning of the calls: active = hit (p65 shift raised or lowered); inactive = no clear change

Against Slc9c1, the values are p65 translocation robust z-score -0.92; nuclear/cytoplasmic p65 ratio, rep 1 = 1.53; nuclear/cytoplasmic p65 ratio, rep 2 = 1.43; low cell count flag enough cells to score; inactive.
Depletion of Dntt (deoxynucleotidyltransferase, terminal) came out at: p65 translocation robust z-score 0.06; nuclear/cytoplasmic p65 ratio, rep 1 = 1.43; nuclear/cytoplasmic p65 ratio, rep 2 = 1.44; low cell count flag enough cells to score; inactive.
Tmem128 (transmembrane protein 128) showed p65 translocation robust z-score 1.65; nuclear/cytoplasmic p65 ratio, rep 1 = 1.62; nuclear/cytoplasmic p65 ratio, rep 2 = 1.67; low cell count flag enough cells to score; inactive.
Desi1 (desumoylating isopeptidase 1) showed p65 translocation robust z-score -1.51; nuclear/cytoplasmic p65 ratio, rep 1 = 1.34; nuclear/cytoplasmic p65 ratio, rep 2 = 1.55; low cell count flag enough cells to score; inactive.
Senp5 (SUMO/sentrin specific peptidase 5) scored p65 translocation robust z-score -0.11; nuclear/cytoplasmic p65 ratio, rep 1 = 1.35; nuclear/cytoplasmic p65 ratio, rep 2 = 1.28; low cell count flag enough cells to score; inactive.
Against Slc25a10, the entry reads p65 translocation robust z-score -0.59; nuclear/cytoplasmic p65 ratio, rep 1 = 1.33; nuclear/cytoplasmic p65 ratio, rep 2 = 1.18; low cell count flag enough cells to score; inactive.
With knock-down of Csnk1g1 (casein kinase 1, gamma 1) the results were p65 translocation robust z-score -0.5; nuclear/cytoplasmic p65 ratio, rep 1 = 1.59; nuclear/cytoplasmic p65 ratio, rep 2 = 1.34; low cell count flag enough cells to score; inactive.
Tmem9 (transmembrane protein 9) gave nuclear/cytoplasmic p65 ratio, rep 1 = 1.24; nuclear/cytoplasmic p65 ratio, rep 2 = 1.24; low cell count flag fewer than 50 cells per well; well left out of scoring; inactive.
After knock-down of Plek (pleckstrin) the results were p65 translocation robust z-score -0.21; nuclear/cytoplasmic p65 ratio, rep 1 = 1.5; nuclear/cytoplasmic p65 ratio, rep 2 = 1.35; low cell count flag enough cells to score; inactive.
With knock-down of Siglec1 (sialic acid binding Ig-like lectin 1, sialoadhesin), the screen gave nuclear/cytoplasmic p65 ratio, rep 1 = 1.24; nuclear/cytoplasmic p65 ratio, rep 2 = 1.19; low cell count flag fewer than 50 cells per well; well left out of scoring; inactive.
Depletion of Fbxo2 (F-box protein 2) resulted in: p65 translocation robust z-score -0.36; nuclear/cytoplasmic p65 ratio, rep 1 = 1.51; nuclear/cytoplasmic p65 ratio, rep 2 = 1.31; low cell count flag enough cells to score; inactive.
Knock-down of Smoc2 (SPARC related modular calcium binding 2) gave: nuclear/cytoplasmic p65 ratio, rep 1 = 0; nuclear/cytoplasmic p65 ratio, rep 2 = 1.08; low cell count flag fewer than 50 cells per well; well left out of scoring; inactive.
Ang4 (angiogenin, ribonuclease A family, member 4) scored p65 translocation robust z-score 0.27; nuclear/cytoplasmic p65 ratio, rep 1 = 1.75; nuclear/cytoplasmic p65 ratio, rep 2 = 1.57; low cell count flag enough cells to score; inactive.
Knock-down of Meig1 (meiosis expressed gene 1) came out at: p65 translocation robust z-score 1.29; nuclear/cytoplasmic p65 ratio, rep 1 = 1.91; nuclear/cytoplasmic p65 ratio, rep 2 = 1.74; low cell count flag enough cells to score; inactive.
With knock-down of Trabd (TraB domain containing), the record shows p65 translocation robust z-score 1.98; nuclear/cytoplasmic p65 ratio, rep 1 = 1.55; nuclear/cytoplasmic p65 ratio, rep 2 = 1.8; low cell count flag enough cells to score; inactive.
After knock-down of Arpc3 (actin related protein 2/3 complex, subunit 3), the screen gave p65 translocation robust z-score 0.21; nuclear/cytoplasmic p65 ratio, rep 1 = 1.66; nuclear/cytoplasmic p65 ratio, rep 2 = 1.64; low cell count flag enough cells to score; inactive.
For Rdh10 (retinol dehydrogenase 10 (all-trans)) the deposit lists p65 translocation robust z-score -1.01; nuclear/cytoplasmic p65 ratio, rep 1 = 1.28; nuclear/cytoplasmic p65 ratio, rep 2 = 1.11; low cell count flag enough cells to score; inactive.
Erlin1 (ER lipid raft associated 1) showed p65 translocation robust z-score 3.2; nuclear/cytoplasmic p65 ratio, rep 1 = 2.07; nuclear/cytoplasmic p65 ratio, rep 2 = 1.8; low cell count flag enough cells to score; inactive.
Igfbp2 (insulin-like growth factor binding protein 2) gave p65 translocation robust z-score -0.11; nuclear/cytoplasmic p65 ratio, rep 1 = 1.44; nuclear/cytoplasmic p65 ratio, rep 2 = 1.34; low cell count flag enough cells to score; inactive.
With knock-down of Ubd (ubiquitin D), the screen gave p65 translocation robust z-score -0.91; nuclear/cytoplasmic p65 ratio, rep 1 = 1.39; nuclear/cytoplasmic p65 ratio, rep 2 = 1.37; low cell count flag enough cells to score; inactive.
For A030005L19Rik (RIKEN cDNA A030005L19 gene), the entry reads p65 translocation robust z-score -1.28; nuclear/cytoplasmic p65 ratio, rep 1 = 1.18; nuclear/cytoplasmic p65 ratio, rep 2 = 1.38; low cell count flag enough cells to score; inactive.
